In PubChem BioAssay AID200 (DTP/NCI, 2004):
The list does not hold the whole screen: it gathers tests that were run many times, whatever their T/C, doses with no T/C, and many T/C values between a quarter and a half above the control. Other doses and runs of a compound stand elsewhere. T/C is the treated group as % of the vehicle group. Some entries give survivors of the animals treated and no T/C: the source files T/C as zero there, which appears to mark a toxic dose or a test without result, not a measured value. Some survivor counts are full or nearly so, which does not show that the dose was tolerated: the source hardly ever lists a survival T/C far under the control, and the zero likely stands for such cases as well. Counts of survivors are from the toxicity check (mostly the fifth day) where no day follows; animals may have died later. Schedules are NCI's codes, read here as Q, the interval in days (D) or hours (H), X, the number of doses. Some entries were tested several times; the values are given in rising order. Where survival is the endpoint, the PubChem record calls one and a half times the control and up active, and a quarter to a half above the control has no call in these data; cut-offs in other NCI protocols can differ. Some T/C values carry the count of animals alive at the toxicity check (mostly the fifth day); where none is given, no animal had died by that day. Where a SMILES comes first, the peptide text is derived from it. [ ]: non-standard residue; d: D form. The star is where a group is joined. Nle = CCCC[CH](N)C(=O)O; Cbz = O=C(OCc1ccccc1)*; Nva = CCC[CH](N)C(=O)O

Tested on: B6C3F1 mice, B16 melanoma ip, median survival T/C
Assay: NCI In Vivo Anticancer Drug Screen. Data for tumor model B16 Melanoma (intraperitoneal) in B6C3F1 mice
Conditions: T/C endpoint: median survival time, higher T/C = longer survival
Procedure, shortened: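 Readout: survival or tumor size in treated mice relative to vehicle controls (T/C). Model uses transplantable tumors grown in mice.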

[1] = dose: 400.0 mg/kg/injection, schedule: Q01DX009 (ip), vehicle: saline
[2] = dose: 25.0 mg/kg/injection, schedule: Q01DX009 (ip), vehicle: saline with Tween-80
[3] = dose: 50.0 mg/kg/injection, schedule: Q01DX009 (ip), vehicle: saline with Tween-80
[4] = dose: 400.0 mg/kg/injection, schedule: Q01DX009 (ip), vehicle: Klucel (hydroxypropylcellulose) (HPC)
[5] = dose: 12.5 mg/kg/injection, schedule: Q01DX009 (ip), vehicle: water
[6] = dose: 200.0 mg/kg/injection, schedule: Q01DX009 (ip), vehicle: saline with Tween-80
[7] = dose: 200.0 mg/kg/injection, schedule: Q01DX009 (ip), vehicle: saline

C=C1C(=O)OC2/C=C(\C)CC(O)/C=C(/CO)CC(OC(=O)/C(C)=C/C)C12 (stereo not drawn)
T/C (dose: 30.0 mg/kg/injection, schedule: Q01DX009 (ip), vehicle: saline + alcohol): 140 % of control | survivor count (dose: 120.0 mg/kg/injection, schedule: Q01DX009 (ip), vehicle: saline with Tween-80): 10 of 10 | survivor count (dose: 120.0 mg/kg/injection, schedule: Q01DX009 (ip), vehicle: saline): 4 of 10

C1CNCCN1
survivor count (dose: 400.0 mg/kg/injection, schedule: Q01DX009 (ip), vehicle: suspension in saline): 3 of 10

O=C1OC(=O)[C@H]2[C@@H]1[C@H]1C=C[C@@H]2OC1=O
survivor count [1]: 9 of 10

C1OC1C1CO1 (stereo not drawn)
T/C (dose: 10.0 mg/kg/injection, schedule: Q01DX009 (ip), vehicle: saline): 127 % of control | survivor count (dose: 20.0 mg/kg/injection, schedule: Q01DX009 (ip), vehicle: saline): 2 of 10 | survivor count (dose: 40.0 mg/kg/injection, schedule: Q01DX009 (ip), vehicle: saline): 0 of 10 and 5 of 10

O=C(CCl)N1c2ccccc2Oc2cc3ccccc3cc21
T/C (dose: 50.0 mg/kg/injection, schedule: Q01DX009 (ip), vehicle: saline): 127 % of control

CC(=O)Oc1ccc2c3c1O[C@H]1[C@@H](OC(C)=O)C=C[C@H]4[C@@H](C2)N(C)CC[C@@]341
survivor count (dose: 256.0 mg/kg/injection, schedule: Q01DX009 (ip), vehicle: saline): 0 of 5

c1ccc2c(c1)-c1ccccc1C1NC21 (stereo not drawn)
survivor count [2]: 10 of 10 | survivor count [3]: 9 of 10 | survivor count (dose: 100.0 mg/kg/injection, schedule: Q01DX009 (ip), vehicle: saline with Tween-80): 0 of 10

CCOC(=O)C(Cc1c[nH]c2ccccc12)NC(=O)C(Cc1ccccc1)NC(=O)C(Cc1cnc[nH]1)NC(=O)OCc1ccccc1 (stereo not drawn) (Cbz-His-Phe-Trp-OEt; configuration not given here)
survivor count (dose: 100.0 mg/kg/injection, schedule: Q01DX009 (ip), vehicle: Klucel (hydroxypropylcellulose) (HPC)): 9 of 10 | survivor count [4]: 9 of 10

CCC(C(=O)O)C(=O)O.[NH2-].[NH2-].[Pt+2]
T/C (dose: 12.5 mg/kg/injection, schedule: Q01DX009 (ip), vehicle: saline): 146 % of control

CCC(C)C(=O)O[C@H]1C(=O)O[C@@H]2C[C@H]3C(C)=CC(=O)[C@@H](O)[C@]3(C)[C@H]3[C@@H](O)[C@H](O)[C@@]4(C)OC[C@]32[C@@H]14 (stereo partly drawn)
T/C (dose: 0.5 mg/kg/injection, schedule: Q01DX009 (ip), vehicle: saline + alcohol): 146 % of control | T/C (dose: 2.0 mg/kg/injection, schedule: Q01DX009 (ip), vehicle: saline + alcohol): 134 % of control | T/C (dose: 4.0 mg/kg/injection, schedule: Q01DX009 (ip), vehicle: saline + alcohol): 145 % of control

COC12C(COC(N)=O)C3=C(C(=O)C(C)=C(N)C3=O)N1CC1C2N1C (stereo not drawn)
T/C (dose: 2.0 mg/kg/injection, schedule: Q01DX009 (ip), vehicle: saline): 129 % of control | survivor count (dose: 16.0 mg/kg/injection, schedule: Q01DX009 (ip), vehicle: saline): 10 of 10

O=C(O)CNC(=O)C(Cc1ccccc1)NC(=O)OCc1ccccc1 (stereo not drawn) (HELM PEPTIDE1{[O=C(OCc1ccccc1)[*:2]].[O=C(C(Cc1ccccc1)N[*:1])[*:2]].G}$$$$V2.0)
survivor count (dose: 200.0 mg/kg/injection, schedule: Q01DX009 (ip), vehicle: Klucel (hydroxypropylcellulose) (HPC)): 10 of 10 | survivor count [4]: 10 of 10

O=NNc1ccccn1
T/C (dose: 6.25 mg/kg/injection, schedule: Q01DX009 (ip), vehicle: water): 131, 133, 141 % of control | T/C [5]: 141 and 148 % of control | survivor count [5]: 10 of 10 | survivor count (dose: 25.0 mg/kg/injection, schedule: Q01DX009 (ip), vehicle: water): 10 of 10

Nc1nc(-c2cccc(S(=O)(=O)O)c2)c(Br)c(=O)[nH]1
T/C [2]: 127 % of control | T/C [3]: 127 % of control

O=C(O)CCC(NC(=O)c1ccccc1)C(=O)O (stereo not drawn)
survivor count [6]: 5 of 5

CO[C@@]12[C@@H]3N[C@@H]3CN1C1=C(C(=O)C(NCc3ccco3)=C(C)C1=O)[C@@H]2COC(N)=O
T/C (dose: 1.12 mg/kg/injection, schedule: Q01DX001 (ip), vehicle: distilled water + Tween-80): 125 % of control | T/C (dose: 2.25 mg/kg/injection, schedule: Q01DX001 (ip), vehicle: distilled water + Tween-80): 148 % of control

COc1cc(NS(C)(=O)=O)ccc1Nc1c2ccc(Cl)cc2nc2c(OC)cccc12
T/C (dose: 4.0 mg/kg/injection, schedule: Q01DX001 (ip), vehicle: water): 125 % of control | survivor count (dose: 4.0 mg/kg/injection, schedule: Q01DX005 (iv), vehicle: water): 9 of 10 | T/C (dose: 8.0 mg/kg/injection, schedule: Q01DX001 (ip), vehicle: water): 126 % of control | survivor count (dose: 8.0 mg/kg/injection, schedule: Q01DX005 (iv), vehicle: water): 4 of 10 | T/C (dose: 16.0 mg/kg/injection, schedule: Q01DX001 (ip), vehicle: water): 142 % of control | survivor count (dose: 16.0 mg/kg/injection, schedule: Q01DX005 (ip), vehicle: water): 10 of 10 | survivor count (dose: 16.0 mg/kg/injection, schedule: Q01DX005 (iv), vehicle: water): 0 of 10 | T/C (dose: 32.0 mg/kg/injection, schedule: Q01DX001 (ip), vehicle: water): 141 % of control | survivor count (dose: 32.0 mg/kg/injection, schedule: Q01DX001 (iv), vehicle: water): 0 of 10

Clc1ncnc2c1ncn2C1CCCO1 (stereo not drawn)
survivor count [7]: 5 of 6 | survivor count [1]: 0 of 6

CC(C)(C)OC(=O)NC(CSCc1ccccc1)C(=O)ON1C(=O)CCC1=O (stereo not drawn)
survivor count [4]: 9 of 10

Nc1nc2ncc(CNc3ccc(C(=O)NC(CCC(=O)O)C(=O)O)cc3)nc2c(=O)[nH]1 (stereo not drawn)
survivor count [7]: 3 of 10 | survivor count [1]: 0 of 10

O=[N+]([O-])c1ccc(Sc2ccncn2)c([N+](=O)[O-])c1
T/C (dose: 6.25 mg/kg/injection, schedule: Q01DX009 (ip), vehicle: saline with Tween-80): 129 % of control [8 of 10 alive] | survivor count [6]: 0 of 10

CC(=O)OC1=C(Br)CCc2ccccc21
survivor count (dose: 50.0 mg/kg/injection, schedule: Q01DX009 (ip), vehicle: DMSO): 5 of 7 | survivor count (dose: 100.0 mg/kg/injection, schedule: Q01DX009 (ip), vehicle: DMSO): 0 of 7 | survivor count (dose: 200.0 mg/kg/injection, schedule: Q01DX009 (ip), vehicle: DMSO): 1 of 7

COc1ccc(CC(N)c2ccccc2)cc1 (stereo not drawn)
survivor count [7]: 0 of 10

CCCCC(NC(=O)C(CCC)NC(=O)OCc1ccccc1)C(=O)O (stereo not drawn) (Cbz-[Nva]-[Nle]-OH; configuration not given here)
survivor count [4]: 5 of 10
